Three molecules from paper PMC6778148 can be followed below.

No constants are given. Whether binding was seen depends on the method and setting. Some binding calls cover weakened binding; strength is not graded here. Tags and fused reporters may be left off the sequences shown.

Experiment [1] concerns the target [15N]PSD-95-12, NMR sample (His tag removed) (rat). As to the kind of experiment: NMR titration; 15N-HSQC of 80 µM 15N-labelled tandem PDZ domains, free and after addition of 100 µM natural abundance Xph clone; PBS, 298 K, 700 MHz; both purified.
The target of experiment [2] is PSD-95 PDZ domain 1 (PSD-95-1), NMR sample (rat). As to the kind of experiment: NMR titration; 15N-HSQC of 100 µM [15N]PSD-95-1 or [15N]PSD-95-2, free and after addition of 120 µM natural abundance Xph clone; PBS, 298 K, 700 MHz; both purified.
Experiment [3] deals with biotinylated PSD-95-12, from pbIG (rat). As to the kind of experiment: SPR; Biacore X100, single cycle kinetics; biotinylated tandem PDZ domains captured (ligand, about 100-220 RU), Xph clone as analyte (five two-fold dilutions up to 2 µM, 1 µM or 500 nM); biphasic curves, qualitative only; both purified. In general terms: In SPR one partner is held on a chip, and binding of the other changes the refractive index at the surface.

B1: Xph20 with C-terminal SUMO fusion, from pET-SUMOc (designed binder)
chain: SSVSSVPTKLEVVAATPTSLLISWDAVAKNVKVGYYRITYGETGGNSPVQEFTVPGSSSTATISGLSPGVDYTITVYANGVLSKMVLPISINYRT
With B1, the binding entry in experiment [1], in experiment [2] and in experiment [3] was “binds” throughout.

B2: Xph15 with C-terminal SUMO fusion, from pET-SUMOc (designed binder)
chain: SSVSSVPTKLEVVAATPTSLLISWDAGPRNVSYYRITYGETGGNSPVQEFTVPGSSSTATISGLSPGVDYTITVYASGHVSTLMTPISINYRT
Consider B2, for which the binding result in experiment [1] and in experiment [3] was “binds” each time.

B3: Xph18 with C-terminal SUMO fusion, from pET-SUMOc (designed binder)
chain: SSVSSVPTKLEVVAATPTSLLISWDAHSRMAWVNYYRITYGETGGNSPVQEFTVPGSSSTATISGLSPGVDYTITVYANGGGFRRGMAPISINYRT
For the molecule B3, the binding result in experiment [1] and in experiment [3] was “binds” throughout.
